This is an account of results in PMC11711184, “Structural basis of THC analog activity at the Cannabinoid 1 receptor” (Nature Communications, 2025).

Chains of the proteins cited; added tags and fusions are not shown.
UniProt P21554: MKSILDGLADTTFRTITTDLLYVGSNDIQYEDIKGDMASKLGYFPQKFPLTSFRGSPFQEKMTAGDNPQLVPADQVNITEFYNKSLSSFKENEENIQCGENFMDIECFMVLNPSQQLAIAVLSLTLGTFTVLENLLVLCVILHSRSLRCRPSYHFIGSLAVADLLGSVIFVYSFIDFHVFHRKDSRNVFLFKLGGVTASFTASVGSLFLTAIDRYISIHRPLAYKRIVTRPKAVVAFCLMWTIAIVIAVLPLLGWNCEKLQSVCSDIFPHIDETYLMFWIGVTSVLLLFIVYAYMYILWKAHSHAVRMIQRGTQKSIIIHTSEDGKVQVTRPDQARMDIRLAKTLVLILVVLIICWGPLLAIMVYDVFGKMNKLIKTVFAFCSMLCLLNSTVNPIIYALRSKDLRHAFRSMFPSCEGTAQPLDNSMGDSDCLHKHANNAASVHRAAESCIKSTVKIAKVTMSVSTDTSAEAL
UniProt P32121: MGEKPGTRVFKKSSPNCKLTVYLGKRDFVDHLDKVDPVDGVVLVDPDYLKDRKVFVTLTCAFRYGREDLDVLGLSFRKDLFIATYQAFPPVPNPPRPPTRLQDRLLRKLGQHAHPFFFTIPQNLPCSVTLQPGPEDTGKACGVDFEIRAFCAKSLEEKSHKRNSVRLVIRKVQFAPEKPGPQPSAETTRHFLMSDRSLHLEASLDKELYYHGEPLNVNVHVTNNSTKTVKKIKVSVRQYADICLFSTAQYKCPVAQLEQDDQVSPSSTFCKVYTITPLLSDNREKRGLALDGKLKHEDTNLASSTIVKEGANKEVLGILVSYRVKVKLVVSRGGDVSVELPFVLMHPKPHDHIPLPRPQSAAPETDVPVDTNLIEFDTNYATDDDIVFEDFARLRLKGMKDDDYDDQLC

In assay [1] the target is CB1-NlucC (human) (UniProt P21554). Kind of assay: FRET or BRET; living HEK293-TR cells stably co-expressing CB1-NlucC and NES-venus-β-arrestin2; agonists added (2AG as reference), BRET read at 1-min intervals for 30 min at 37 °C; HBSS, 0.5% BSA, 5 mM HEPES, 10 μM furimazine.
Assay [2] shares this target. Nature of the assay: FRET or BRET; as the β-arrestin2 recruitment BRET in living HEK293-TR cells, with Cannabinol as the agonist; response normalised to 2AG. On the technique in general: Bioluminescence resonance energy transfer reports proximity on the nanometre scale.
For assay [3] the target is unchanged. Kind of assay: FRET or BRET; as the β-arrestin2 recruitment BRET in living HEK293-TR cells, with L759633 as the agonist; response normalised to 2AG.

No constants are given. Whether binding was seen depends on the method and setting. In cells and extracts the contact can be indirect. Some binding calls cover weakened binding; strength is not graded here.

“NES-venus-β-arrestin2 (from UniProt P32121 1-409)”: the binding entry with CB1-NlucC (human) [1] was “binds”; with CB1-NlucC (human) [2], “no binding (condition: with Cannabinol as the agonist)”; with CB1-NlucC (human) [3], “binds weakly”.
